# Experimental data taken from patent publication US20200016266A1.
# The chains behind the UniProt entries cited, without tags or fusion partners. Where a name states a change or a piece, a line headed by the entry shows the natural chain unless it says otherwise. A line that says so, or that is headed by a name, gives the form on record, which may keep a tag or linker.
# Ig2 (P35968, form named): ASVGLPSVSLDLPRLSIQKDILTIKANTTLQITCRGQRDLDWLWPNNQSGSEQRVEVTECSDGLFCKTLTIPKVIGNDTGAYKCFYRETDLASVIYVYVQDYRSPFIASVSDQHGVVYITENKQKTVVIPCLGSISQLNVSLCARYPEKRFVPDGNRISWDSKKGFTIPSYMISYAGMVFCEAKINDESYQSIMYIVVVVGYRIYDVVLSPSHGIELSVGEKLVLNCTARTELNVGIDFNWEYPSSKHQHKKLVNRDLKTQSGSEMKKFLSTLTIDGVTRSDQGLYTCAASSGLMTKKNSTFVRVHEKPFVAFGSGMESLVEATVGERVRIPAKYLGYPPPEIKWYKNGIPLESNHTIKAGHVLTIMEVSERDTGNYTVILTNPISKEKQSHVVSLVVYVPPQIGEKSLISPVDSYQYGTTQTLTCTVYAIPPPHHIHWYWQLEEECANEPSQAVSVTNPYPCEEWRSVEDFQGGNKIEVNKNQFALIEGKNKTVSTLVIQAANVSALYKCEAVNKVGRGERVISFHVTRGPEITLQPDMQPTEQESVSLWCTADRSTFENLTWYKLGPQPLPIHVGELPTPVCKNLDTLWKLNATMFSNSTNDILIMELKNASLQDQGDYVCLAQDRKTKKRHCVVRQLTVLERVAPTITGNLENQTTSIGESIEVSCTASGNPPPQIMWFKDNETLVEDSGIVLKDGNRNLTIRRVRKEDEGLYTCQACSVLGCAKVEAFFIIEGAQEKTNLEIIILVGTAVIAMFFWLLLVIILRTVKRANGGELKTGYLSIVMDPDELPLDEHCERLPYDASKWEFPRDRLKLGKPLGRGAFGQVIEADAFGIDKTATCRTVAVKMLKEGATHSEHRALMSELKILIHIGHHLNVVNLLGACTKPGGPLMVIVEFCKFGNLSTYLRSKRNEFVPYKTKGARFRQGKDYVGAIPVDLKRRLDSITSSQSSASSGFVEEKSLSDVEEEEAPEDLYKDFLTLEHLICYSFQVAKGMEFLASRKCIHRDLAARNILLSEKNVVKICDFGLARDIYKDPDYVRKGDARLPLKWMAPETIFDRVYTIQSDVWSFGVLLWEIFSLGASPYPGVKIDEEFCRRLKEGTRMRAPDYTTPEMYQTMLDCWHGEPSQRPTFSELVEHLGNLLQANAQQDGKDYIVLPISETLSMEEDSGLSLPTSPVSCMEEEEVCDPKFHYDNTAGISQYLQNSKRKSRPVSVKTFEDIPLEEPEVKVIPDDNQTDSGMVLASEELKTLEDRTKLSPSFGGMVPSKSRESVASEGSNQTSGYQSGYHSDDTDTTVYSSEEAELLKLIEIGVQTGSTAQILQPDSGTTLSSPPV
# Ig1 (P35968, form named): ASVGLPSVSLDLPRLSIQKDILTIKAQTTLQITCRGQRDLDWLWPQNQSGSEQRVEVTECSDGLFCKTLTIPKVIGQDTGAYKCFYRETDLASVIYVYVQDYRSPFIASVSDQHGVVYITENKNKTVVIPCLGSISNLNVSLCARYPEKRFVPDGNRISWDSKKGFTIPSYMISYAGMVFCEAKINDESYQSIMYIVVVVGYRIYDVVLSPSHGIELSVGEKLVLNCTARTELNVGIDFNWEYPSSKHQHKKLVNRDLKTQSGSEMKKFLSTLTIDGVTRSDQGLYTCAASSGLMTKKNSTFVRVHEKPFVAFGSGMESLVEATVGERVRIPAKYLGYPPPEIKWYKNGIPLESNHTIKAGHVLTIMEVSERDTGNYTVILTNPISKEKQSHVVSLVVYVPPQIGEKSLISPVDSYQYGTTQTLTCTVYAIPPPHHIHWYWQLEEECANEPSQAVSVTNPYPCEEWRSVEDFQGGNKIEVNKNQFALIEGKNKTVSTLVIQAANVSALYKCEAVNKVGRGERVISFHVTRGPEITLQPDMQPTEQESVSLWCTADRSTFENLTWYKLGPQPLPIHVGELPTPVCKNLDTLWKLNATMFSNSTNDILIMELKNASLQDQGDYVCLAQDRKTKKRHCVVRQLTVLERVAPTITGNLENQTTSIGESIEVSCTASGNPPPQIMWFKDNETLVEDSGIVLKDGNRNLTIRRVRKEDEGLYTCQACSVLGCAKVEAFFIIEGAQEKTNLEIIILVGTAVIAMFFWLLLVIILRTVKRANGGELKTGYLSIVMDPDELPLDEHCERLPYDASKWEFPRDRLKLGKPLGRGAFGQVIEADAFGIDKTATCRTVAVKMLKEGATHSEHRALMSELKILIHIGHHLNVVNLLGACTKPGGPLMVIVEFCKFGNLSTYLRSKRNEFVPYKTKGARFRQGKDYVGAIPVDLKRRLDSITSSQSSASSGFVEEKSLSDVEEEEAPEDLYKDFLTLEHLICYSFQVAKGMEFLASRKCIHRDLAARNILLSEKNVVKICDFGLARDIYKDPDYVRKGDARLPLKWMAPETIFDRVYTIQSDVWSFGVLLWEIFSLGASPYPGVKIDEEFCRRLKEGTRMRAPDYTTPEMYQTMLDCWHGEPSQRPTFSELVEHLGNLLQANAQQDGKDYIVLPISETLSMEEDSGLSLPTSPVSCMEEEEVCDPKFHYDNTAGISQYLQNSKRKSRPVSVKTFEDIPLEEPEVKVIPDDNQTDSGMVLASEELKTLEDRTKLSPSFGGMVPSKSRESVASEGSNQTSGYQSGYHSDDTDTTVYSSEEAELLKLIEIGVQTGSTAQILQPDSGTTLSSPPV
# UniProt P09382: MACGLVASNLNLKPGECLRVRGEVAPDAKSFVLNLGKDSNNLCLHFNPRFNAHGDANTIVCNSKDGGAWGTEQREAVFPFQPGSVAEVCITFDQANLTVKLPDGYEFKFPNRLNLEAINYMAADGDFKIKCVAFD
# No constants are given. Whether binding was seen depends on the method and setting. Some entries that bind do so weakly or less than the wild type.
# Experiments:
# Ig2 (Homo sapiens) = Ig2 (Homo sapiens) (UniProt P35968); assay: anti-HA bead immunoprecipitation of KDR-HA from HEK 293T lysates, incubation with Gal1 and Alexa Fluor 488 anti-Gal1 Ab, flow cytometry; % relative to KDR-HA WT
# Ig1 (Homo sapiens) = Ig1 (Homo sapiens) (UniProt P35968); assay: as above
substance,measurement,setting,value
Galectin-1 (human recombinant Gal1) (from UniProt P09382 2-135) (ligand),binding,Ig2 (Homo sapiens),binds
same,binding,Ig1 (Homo sapiens),binds
